## Assay results

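A cell line overexpressing EP4 prostanoid receptors, stimulated with a low (about EC15) PGE2 dose; cAMP read by HTRF FRET after a short room-temperature incubation. Compounds were tested at 20 µM final. A low (about EC15) PGE2 dose was present. Percent cAMP induction as a fraction of the 1 µM PGE2 response, averaged over three replicates; a higher value means more cAMP.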

Values are in %. Common to all entries: measured here: EP4 receptor counter-screen. Part of the compounds only, not a random draw; the main read-out is not listed here.

- COC(=O)c1c(NC(=O)Cc2cccs2)sc(C)c1C [percent of 1 uM PGE2 response; plus low (about EC15) PGE2 agonist] : cAMP induction -0.8433%
- O=c1cc2c(nn1Cc1c(Cl)cccc1Cl)-c1ccccc1CC2 [percent of 1 uM PGE2 response; plus low (about EC15) PGE2 agonist] : cAMP induction 3.753%
- COc1ccc(C(=O)NCCCN2CCOCC2)cc1OC [percent of 1 uM PGE2 response; plus low (about EC15) PGE2 agonist] : cAMP induction 10.59%
- CCc1oc2ccccc2c1C(=O)c1cc(Br)c(O)c(Br)c1 [percent of 1 uM PGE2 response; plus low (about EC15) PGE2 agonist] : cAMP induction 33.99%
- Cn1c(=O)[nH]c(=O)c2c1nc(CN1CCN(c3ccccc3F)CC1)n2CCCc1ccccc1 [percent of 1 uM PGE2 response; plus low (about EC15) PGE2 agonist] : cAMP induction -9.843%
- S=C(Nc1ccccc1Cl)N(Cc1ccccc1)Cc1ccccn1 [percent of 1 uM PGE2 response; plus low (about EC15) PGE2 agonist] : cAMP induction 5.733%
- CCOC(=O)c1c(NC(=O)CN(CC)CC)sc2c1CCN(C(=O)OCC)C2 [percent of 1 uM PGE2 response; plus low (about EC15) PGE2 agonist] : cAMP induction -4.437%
- CCOC(=O)C1=NN(c2cccc(C)c2)C2(S1)SC(C(C)=O)=C(C)N2c1ccccc1 (configuration not stated) [percent of 1 uM PGE2 response; plus low (about EC15) PGE2 agonist] : cAMP induction 3.407%
- Cc1ccsc1-c1n[nH]c(=S)n1C1CCCCC1 [percent of 1 uM PGE2 response; plus low (about EC15) PGE2 agonist] : cAMP induction 6.613%
- Cc1noc(C)c1CSc1ncnc2sc3c(c12)CCCCC3 [percent of 1 uM PGE2 response; plus low (about EC15) PGE2 agonist] : cAMP induction -2.253%
- COc1ccc(-n2c(CCc3ccccc3)nnc2SCC(=O)c2ccccc2)cc1 [percent of 1 uM PGE2 response; plus low (about EC15) PGE2 agonist] : cAMP induction 0.39%
- Nc1ccc(SC(F)(F)F)cc1C(=O)c1ccccc1 [percent of 1 uM PGE2 response; plus low (about EC15) PGE2 agonist] : cAMP induction -17.96%
- O=C(Nc1ccccc1Oc1ccccc1)c1ccccc1F [percent of 1 uM PGE2 response; plus low (about EC15) PGE2 agonist] : cAMP induction -4.287%
- CCCCCn1c(CN2CCN(c3cc(Cl)ccc3C)CC2)nc2c1c(=O)[nH]c(=O)n2C [percent of 1 uM PGE2 response; plus low (about EC15) PGE2 agonist] : cAMP induction -20.13%
- C=CCn1c(=S)[nH]c2sccc2c1=O [percent of 1 uM PGE2 response; plus low (about EC15) PGE2 agonist] : cAMP induction 29.13%

For reference, 2 entries once more:

structure,tested on / at,cAMP induction (%)
Cn1c(=O)[nH]c(=O)c2c1nc(CN1CCN(c3ccccc3F)CC1)n2CCCc1ccccc1,percent of 1 uM PGE2 response; plus low (about EC15) PGE2 agonist,-9.843
S=C(Nc1ccccc1Cl)N(Cc1ccccc1)Cc1ccccn1,percent of 1 uM PGE2 response; plus low (about EC15) PGE2 agonist,5.733

Data taken from PubChem BioAssay AID1080, deposited by Emory University Molecular Libraries Screening Center (2008).